Results as given in patent publication US8722376B2, “Firefly luciferase” (Olympus Corporation, priority 2011, dated 2014).

Assay: Measurement of luminescence spectra of purified luciferase at various pHs
Format: biochemical

B1: SP1 luciferase: luciferase of SEQ ID NO: 1 derived from Malaysian firefly Luciola sp1 (protein, listed as Luciola sp.)
chain: MNNMDDGEHIVVGPQPFYPVEEGSAGTQLLKYLKQYSKLGAIAFSNAHTKVDISYAEYLDTSVRLAQALINYGIPIDGRIALCSENCEEFYFPVLAGLYIGAGVAPTNEIYTLRELVHSLGISKPTIVFSSKKGLEKVITVQKTVTCIKTIVILDSKVDYQGYDCLETFIKKYLPAGFSVENFIPREVNRKEQVALVMNSSGSTGLPKGVQITHEGAVTRFSHARDPIYGNQVSPGTAILTIVPFHHGFGMFTNLGYLTCGYRIVMLTKFDEELFLKTLADYKCTSVILVPTLFAILSKSVLLEKYDLSNLVEIASGGAPLAKEVGEAVARRFNLPGIRQGYGLTETTSAIIITPEGDDKPGASGKIVPLFRAKVVDLDTQKTLGPNRRGEICVKGPMLMKGYVDDPVATSQIIDKDGWLHTGDIGYFDEDKHFFIVDRLKSLIKYKGYQVPPAELESVLLQHPDIFDAGVAGLPDPLAGELPGAVVVLEKGRHMTEQQVMDYVAGQVSNAKRLRGGVRFVDEVPKGLTGKIDSKAIREILKSPKAKM
For B1, the maximum luminescent wavelength (pH 6.0) was roughly 609 nm, the “pH at which the maximum luminescent intensity was confirmed” value (pH 6.0-8.0 tested) was 7.5 and the maximum luminescent wavelength (pH 6.5) was roughly 606 nm. For the same molecule, the maximum luminescent wavelength (pH 7.0) was roughly 598 nm, the maximum luminescent wavelength (pH 7.5) was “approximately 587 nm” and the maximum luminescent wavelength (pH 8) was “approximately 580 nm”.

Where no unit stands, none is given here, and values compare only within one read-out.
